# The supplement of paper PMC7666118
# The chains behind the UniProt entries cited, without tags or fusion partners. Where a name states a change or a piece, a line headed by the entry shows the natural chain unless it says otherwise.
# UniProt P19793: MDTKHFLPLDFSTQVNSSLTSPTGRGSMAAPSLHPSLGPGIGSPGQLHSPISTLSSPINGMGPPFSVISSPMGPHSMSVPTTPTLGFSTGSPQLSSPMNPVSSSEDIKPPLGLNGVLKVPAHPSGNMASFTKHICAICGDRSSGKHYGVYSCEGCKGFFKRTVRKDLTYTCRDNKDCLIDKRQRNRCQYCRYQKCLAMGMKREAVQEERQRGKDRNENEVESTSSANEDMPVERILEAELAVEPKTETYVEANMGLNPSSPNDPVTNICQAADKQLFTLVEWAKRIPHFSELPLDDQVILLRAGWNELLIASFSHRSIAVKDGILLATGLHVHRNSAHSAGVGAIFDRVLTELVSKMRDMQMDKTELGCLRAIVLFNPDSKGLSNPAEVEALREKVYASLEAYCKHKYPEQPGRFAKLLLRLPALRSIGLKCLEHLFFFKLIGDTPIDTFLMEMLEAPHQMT
# UniProt Q969G6: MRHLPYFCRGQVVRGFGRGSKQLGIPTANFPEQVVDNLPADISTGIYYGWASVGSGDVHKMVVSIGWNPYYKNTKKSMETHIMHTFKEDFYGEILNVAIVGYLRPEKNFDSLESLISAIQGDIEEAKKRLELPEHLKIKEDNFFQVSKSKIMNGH
# UniProt O43566: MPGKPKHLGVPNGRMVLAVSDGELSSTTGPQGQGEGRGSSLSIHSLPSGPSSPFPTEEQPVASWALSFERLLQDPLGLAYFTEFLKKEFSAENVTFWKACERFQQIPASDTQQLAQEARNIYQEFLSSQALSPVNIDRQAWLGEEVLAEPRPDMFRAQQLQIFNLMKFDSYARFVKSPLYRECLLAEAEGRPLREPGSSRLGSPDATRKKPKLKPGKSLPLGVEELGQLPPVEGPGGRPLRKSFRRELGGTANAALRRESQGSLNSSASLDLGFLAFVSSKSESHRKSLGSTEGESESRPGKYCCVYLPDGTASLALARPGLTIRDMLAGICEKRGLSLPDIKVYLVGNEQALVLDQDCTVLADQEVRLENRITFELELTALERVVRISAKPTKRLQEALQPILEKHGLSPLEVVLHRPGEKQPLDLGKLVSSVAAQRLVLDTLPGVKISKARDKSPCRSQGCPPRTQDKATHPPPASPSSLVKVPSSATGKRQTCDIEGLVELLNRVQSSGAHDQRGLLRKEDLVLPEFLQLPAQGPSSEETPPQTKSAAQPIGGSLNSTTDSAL
# UniProt Q8N1G1: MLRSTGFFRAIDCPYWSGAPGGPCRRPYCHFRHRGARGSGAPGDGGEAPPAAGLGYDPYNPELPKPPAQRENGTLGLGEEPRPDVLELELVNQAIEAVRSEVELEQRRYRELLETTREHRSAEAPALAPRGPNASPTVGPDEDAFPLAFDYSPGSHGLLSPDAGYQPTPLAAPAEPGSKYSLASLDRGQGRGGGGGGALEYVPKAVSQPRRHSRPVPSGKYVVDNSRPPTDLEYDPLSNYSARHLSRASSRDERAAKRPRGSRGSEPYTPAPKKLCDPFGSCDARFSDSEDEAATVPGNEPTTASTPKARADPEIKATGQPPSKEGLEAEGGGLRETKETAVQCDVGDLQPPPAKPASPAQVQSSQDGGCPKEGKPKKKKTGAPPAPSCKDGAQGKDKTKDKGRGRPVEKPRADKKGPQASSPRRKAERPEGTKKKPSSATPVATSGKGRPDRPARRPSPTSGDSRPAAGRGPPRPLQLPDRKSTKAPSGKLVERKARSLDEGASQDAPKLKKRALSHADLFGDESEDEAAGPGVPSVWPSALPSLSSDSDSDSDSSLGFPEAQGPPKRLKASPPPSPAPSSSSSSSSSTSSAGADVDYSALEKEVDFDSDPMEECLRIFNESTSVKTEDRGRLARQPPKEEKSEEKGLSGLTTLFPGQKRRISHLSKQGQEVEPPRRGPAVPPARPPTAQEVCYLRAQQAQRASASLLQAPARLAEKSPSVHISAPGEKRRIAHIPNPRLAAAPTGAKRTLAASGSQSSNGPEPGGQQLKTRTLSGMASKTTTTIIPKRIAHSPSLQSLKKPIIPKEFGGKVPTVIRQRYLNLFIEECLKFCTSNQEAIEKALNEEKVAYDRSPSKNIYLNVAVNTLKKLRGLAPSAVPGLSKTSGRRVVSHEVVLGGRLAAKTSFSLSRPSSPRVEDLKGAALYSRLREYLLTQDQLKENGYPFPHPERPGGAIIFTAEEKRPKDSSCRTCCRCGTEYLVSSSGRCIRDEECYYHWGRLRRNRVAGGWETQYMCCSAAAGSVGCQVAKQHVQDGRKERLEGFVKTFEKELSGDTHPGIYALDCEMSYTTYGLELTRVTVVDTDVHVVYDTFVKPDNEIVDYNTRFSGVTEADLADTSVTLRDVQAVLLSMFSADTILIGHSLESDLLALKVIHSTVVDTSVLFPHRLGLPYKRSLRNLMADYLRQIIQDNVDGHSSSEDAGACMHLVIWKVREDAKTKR
# UniProt O75695: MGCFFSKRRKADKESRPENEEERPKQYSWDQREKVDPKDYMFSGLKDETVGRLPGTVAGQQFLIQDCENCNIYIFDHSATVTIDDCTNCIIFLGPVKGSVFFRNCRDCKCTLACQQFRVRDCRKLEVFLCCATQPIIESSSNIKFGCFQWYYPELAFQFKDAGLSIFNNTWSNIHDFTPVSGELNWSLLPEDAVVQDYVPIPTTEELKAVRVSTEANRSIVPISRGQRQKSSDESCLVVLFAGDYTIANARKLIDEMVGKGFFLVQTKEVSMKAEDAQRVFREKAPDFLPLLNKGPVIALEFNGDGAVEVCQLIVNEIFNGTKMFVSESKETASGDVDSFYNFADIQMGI
# UniProt Q9P0P0: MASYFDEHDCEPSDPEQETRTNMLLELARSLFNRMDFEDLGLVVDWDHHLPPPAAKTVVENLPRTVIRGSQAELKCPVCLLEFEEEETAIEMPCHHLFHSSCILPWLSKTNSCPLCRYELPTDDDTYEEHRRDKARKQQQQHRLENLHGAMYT
# UniProt Q8TA86: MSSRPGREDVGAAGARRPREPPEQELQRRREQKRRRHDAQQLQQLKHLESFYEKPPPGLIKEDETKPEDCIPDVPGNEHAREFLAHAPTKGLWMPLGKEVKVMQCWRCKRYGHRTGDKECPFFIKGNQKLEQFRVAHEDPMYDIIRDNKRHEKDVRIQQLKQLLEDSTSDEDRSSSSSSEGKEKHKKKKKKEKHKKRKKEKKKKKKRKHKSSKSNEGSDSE
# UniProt Q7LG56, whole entry: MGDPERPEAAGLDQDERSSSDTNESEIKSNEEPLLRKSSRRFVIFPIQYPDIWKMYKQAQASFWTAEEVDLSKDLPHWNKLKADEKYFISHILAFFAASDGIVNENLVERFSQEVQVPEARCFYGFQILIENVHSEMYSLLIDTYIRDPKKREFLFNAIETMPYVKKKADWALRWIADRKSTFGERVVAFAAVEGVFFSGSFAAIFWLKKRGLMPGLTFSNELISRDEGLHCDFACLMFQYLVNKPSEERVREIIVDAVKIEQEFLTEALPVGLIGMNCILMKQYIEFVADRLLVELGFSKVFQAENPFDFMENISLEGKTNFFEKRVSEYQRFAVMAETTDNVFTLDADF
# UniProt Q9BWE0: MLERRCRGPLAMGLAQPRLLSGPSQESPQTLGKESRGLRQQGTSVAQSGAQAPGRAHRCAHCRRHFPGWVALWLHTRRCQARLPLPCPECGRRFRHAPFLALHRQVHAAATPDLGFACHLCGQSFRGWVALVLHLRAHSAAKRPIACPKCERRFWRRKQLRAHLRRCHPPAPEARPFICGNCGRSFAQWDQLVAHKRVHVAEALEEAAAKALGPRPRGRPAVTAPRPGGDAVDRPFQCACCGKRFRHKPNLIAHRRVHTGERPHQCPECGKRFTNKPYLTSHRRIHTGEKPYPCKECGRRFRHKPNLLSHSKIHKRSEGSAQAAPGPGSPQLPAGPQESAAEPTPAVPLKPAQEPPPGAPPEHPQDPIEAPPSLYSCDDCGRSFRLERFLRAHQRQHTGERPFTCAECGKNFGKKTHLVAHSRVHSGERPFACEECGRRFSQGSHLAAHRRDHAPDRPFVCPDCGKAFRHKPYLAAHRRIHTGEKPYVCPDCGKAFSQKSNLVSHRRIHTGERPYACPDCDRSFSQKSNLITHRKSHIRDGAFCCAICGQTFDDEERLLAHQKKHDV
# UniProt Q6PCD5: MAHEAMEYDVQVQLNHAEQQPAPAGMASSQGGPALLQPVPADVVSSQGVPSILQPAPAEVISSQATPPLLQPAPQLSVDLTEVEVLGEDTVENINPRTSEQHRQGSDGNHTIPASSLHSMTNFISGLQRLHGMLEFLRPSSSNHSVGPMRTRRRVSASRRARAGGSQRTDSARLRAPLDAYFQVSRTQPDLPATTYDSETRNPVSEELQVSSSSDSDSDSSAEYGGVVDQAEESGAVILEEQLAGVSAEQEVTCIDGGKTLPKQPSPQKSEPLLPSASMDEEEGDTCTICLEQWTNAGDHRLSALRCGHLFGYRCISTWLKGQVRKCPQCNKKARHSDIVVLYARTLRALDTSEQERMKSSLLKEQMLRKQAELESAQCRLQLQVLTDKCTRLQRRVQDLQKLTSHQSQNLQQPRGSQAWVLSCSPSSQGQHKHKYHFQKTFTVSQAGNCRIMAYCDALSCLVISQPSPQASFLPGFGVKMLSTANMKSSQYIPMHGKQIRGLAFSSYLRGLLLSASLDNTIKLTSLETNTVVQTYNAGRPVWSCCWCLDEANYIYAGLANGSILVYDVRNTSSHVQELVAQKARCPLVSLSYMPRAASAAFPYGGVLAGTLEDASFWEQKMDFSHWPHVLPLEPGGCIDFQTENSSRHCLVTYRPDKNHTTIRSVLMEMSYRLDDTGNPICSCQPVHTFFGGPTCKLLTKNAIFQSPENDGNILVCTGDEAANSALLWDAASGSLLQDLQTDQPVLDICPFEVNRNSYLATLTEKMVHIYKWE
# UniProt Q00765: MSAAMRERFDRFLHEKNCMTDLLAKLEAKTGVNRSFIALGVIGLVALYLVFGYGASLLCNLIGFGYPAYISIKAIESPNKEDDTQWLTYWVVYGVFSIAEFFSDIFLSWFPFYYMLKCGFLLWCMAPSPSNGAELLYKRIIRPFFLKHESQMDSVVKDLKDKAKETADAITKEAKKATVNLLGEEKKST
# UniProt P53805: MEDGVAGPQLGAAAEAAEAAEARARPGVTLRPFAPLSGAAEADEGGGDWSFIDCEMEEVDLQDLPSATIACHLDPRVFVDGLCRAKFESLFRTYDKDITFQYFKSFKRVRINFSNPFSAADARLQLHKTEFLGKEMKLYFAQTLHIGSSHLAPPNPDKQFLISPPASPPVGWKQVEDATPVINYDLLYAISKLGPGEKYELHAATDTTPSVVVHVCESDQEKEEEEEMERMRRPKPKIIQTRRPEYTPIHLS
# UniProt P60602: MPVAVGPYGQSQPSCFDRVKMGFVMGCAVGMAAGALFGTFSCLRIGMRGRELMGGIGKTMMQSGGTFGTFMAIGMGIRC
# UniProt Q9BRS2: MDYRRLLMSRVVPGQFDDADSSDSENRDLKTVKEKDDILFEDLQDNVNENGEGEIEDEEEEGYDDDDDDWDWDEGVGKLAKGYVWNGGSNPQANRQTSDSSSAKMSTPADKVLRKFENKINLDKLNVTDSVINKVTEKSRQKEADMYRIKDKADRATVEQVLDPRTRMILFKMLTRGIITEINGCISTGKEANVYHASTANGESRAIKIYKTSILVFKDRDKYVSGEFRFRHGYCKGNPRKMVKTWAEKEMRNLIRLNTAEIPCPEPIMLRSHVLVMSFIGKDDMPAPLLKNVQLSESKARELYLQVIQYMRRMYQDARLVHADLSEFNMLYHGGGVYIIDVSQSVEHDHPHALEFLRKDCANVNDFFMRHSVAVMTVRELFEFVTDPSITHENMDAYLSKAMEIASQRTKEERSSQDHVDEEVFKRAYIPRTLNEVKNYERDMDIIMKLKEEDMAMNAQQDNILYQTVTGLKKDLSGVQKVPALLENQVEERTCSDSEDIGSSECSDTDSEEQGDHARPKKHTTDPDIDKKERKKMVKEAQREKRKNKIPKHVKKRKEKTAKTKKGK
# UniProt Q13546: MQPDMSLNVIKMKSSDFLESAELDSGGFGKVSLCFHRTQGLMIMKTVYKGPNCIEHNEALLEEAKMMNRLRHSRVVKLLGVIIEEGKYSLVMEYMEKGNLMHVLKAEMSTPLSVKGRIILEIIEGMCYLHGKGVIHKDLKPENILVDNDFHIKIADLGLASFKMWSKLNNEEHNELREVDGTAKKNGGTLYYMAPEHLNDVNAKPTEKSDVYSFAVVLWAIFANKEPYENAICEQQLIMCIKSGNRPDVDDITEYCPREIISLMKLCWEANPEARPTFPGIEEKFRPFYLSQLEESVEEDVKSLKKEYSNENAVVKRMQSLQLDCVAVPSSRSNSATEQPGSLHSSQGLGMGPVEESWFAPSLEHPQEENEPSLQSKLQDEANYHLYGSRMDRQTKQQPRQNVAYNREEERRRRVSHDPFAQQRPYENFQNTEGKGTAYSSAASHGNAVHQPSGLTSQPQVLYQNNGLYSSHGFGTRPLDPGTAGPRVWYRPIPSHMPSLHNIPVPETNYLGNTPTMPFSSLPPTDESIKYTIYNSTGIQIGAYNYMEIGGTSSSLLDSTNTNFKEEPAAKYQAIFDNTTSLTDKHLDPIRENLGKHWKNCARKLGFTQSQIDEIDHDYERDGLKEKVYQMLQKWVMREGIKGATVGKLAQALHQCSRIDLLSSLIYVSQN
# This is one part of the list.
# Compound: COc1ccc(Cn2ccc3ccc(C(=O)NO)cc32)cc1
# Test: dose-dependent thermal stabilisation call (2D-TPP, DLPTP, 10% FDR) (binary (1 = stabilised)); higher = stabilised by the compound
# Details: system: HL-60 intact cells; concentration range 0.04-10 µM
row,Target,dose-dependent thermal stabilisation call
1,RPS24 (UniProt P62847),inactive: 0
2,RXRA (UniProt P19793),inactive: 0
3,RFK (UniProt Q969G6),inactive: 0
4,RGS14 (UniProt O43566),inactive: 0
5,SAFB (UniProt Q15424),inactive: 0
6,REXO1 (UniProt Q8N1G1),inactive: 0
7,RPA2 (UniProt P15927),inactive: 0
8,RP2 (UniProt O75695),inactive: 0
9,RNF181 (UniProt Q9P0P0),inactive: 0
10,RRS1 (UniProt Q15050),inactive: 0
11,RP9 (UniProt Q8TA86),inactive: 0
12,RRM2B (UniProt Q7LG56),inactive: 0
13,REPIN1 (UniProt Q9BWE0),inactive: 0
14,RRAGD (UniProt Q9NQL2),inactive: 0
15,RPS28 (UniProt P62857),inactive: 0
16,RFWD3 (UniProt Q6PCD5),inactive: 0
17,RWDD1 (UniProt Q9H446),inactive: 0
18,RNF121 (UniProt Q9H920),inactive: 0
19,RTN2 (UniProt O75298),inactive: 0
20,REXO4 (UniProt Q9GZR2),inactive: 0
21,RPS6KB2 (UniProt Q9UBS0),inactive: 0
22,REEP5 (UniProt Q00765),inactive: 0
23,RCAN1 (UniProt P53805),inactive: 0
24,ROMO1 (UniProt P60602),inactive: 0
25,RIOK1 (UniProt Q9BRS2),inactive: 0
26,RNF2 (UniProt Q99496),inactive: 0
27,RIPK1 (UniProt Q13546),inactive: 0

# Excerpt: entries 3–4
row,Target,dose-dependent thermal stabilisation call
3,RFK (UniProt Q969G6),inactive: 0
4,RGS14 (UniProt O43566),inactive: 0
